Some of the results follow.
Assays:
Test in all cases: log2 fold change, soluble protein after heating vs DMSO (PISA); higher = thermal stabilisation; K562 lysate, 10 uM; active = over 0.2 and 3.5 SD of the protein, either way, in both replicates (recomputed)
erlotinib = compound: C#Cc1cccc(Nc2ncnc3cc(OCCOC)c(OCCOC)cc23)c1 [erlotinib]
Procedure, shortened: (§1)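 K562 pellets were dounce-homogenised in PBS pH 7.4 containing 1 mM MgCl2, and the crude extract, at 1 mg/mL protein, was exposed to 10 μM compound for 30 min. Aliquots were heated for 3 min across 48°C-58°C, pooled, brought to 0.5% NP-40 at 4°C and spun at 21,000xg for 90 min, with the supernatant taken as soluble protein. TMTpro 16plex LC-MS/MS with equalised channel sums quantified that protein. Values are log-two fold changes in thermal stability relative to solvent controls, taken from duplicates.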

Sequences of proteins named here, by UniProt entry; tags and fusion partners are left off. A change or cut given only in a name is not applied to a line headed by its entry.
UniProt O15318: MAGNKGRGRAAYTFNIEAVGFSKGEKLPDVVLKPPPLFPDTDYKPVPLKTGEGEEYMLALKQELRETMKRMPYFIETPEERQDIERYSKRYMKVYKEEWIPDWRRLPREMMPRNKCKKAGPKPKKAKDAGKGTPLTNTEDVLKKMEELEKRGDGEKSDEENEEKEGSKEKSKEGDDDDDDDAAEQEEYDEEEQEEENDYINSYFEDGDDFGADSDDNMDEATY
UniProt P53350, whole entry, looked up: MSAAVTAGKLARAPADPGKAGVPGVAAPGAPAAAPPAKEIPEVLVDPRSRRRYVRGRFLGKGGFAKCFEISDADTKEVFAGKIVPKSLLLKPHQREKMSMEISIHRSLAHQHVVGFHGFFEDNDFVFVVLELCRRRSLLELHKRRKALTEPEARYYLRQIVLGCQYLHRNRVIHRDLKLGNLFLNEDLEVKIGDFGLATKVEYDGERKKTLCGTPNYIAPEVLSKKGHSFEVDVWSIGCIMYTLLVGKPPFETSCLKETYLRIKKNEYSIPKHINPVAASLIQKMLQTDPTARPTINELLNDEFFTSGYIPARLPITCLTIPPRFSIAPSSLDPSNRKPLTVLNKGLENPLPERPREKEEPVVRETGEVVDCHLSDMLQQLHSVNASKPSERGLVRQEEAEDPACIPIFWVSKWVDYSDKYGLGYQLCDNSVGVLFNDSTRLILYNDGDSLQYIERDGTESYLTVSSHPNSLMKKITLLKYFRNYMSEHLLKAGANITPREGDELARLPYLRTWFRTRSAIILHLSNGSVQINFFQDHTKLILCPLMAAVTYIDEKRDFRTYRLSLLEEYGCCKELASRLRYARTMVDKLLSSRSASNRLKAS
UniProt P09884: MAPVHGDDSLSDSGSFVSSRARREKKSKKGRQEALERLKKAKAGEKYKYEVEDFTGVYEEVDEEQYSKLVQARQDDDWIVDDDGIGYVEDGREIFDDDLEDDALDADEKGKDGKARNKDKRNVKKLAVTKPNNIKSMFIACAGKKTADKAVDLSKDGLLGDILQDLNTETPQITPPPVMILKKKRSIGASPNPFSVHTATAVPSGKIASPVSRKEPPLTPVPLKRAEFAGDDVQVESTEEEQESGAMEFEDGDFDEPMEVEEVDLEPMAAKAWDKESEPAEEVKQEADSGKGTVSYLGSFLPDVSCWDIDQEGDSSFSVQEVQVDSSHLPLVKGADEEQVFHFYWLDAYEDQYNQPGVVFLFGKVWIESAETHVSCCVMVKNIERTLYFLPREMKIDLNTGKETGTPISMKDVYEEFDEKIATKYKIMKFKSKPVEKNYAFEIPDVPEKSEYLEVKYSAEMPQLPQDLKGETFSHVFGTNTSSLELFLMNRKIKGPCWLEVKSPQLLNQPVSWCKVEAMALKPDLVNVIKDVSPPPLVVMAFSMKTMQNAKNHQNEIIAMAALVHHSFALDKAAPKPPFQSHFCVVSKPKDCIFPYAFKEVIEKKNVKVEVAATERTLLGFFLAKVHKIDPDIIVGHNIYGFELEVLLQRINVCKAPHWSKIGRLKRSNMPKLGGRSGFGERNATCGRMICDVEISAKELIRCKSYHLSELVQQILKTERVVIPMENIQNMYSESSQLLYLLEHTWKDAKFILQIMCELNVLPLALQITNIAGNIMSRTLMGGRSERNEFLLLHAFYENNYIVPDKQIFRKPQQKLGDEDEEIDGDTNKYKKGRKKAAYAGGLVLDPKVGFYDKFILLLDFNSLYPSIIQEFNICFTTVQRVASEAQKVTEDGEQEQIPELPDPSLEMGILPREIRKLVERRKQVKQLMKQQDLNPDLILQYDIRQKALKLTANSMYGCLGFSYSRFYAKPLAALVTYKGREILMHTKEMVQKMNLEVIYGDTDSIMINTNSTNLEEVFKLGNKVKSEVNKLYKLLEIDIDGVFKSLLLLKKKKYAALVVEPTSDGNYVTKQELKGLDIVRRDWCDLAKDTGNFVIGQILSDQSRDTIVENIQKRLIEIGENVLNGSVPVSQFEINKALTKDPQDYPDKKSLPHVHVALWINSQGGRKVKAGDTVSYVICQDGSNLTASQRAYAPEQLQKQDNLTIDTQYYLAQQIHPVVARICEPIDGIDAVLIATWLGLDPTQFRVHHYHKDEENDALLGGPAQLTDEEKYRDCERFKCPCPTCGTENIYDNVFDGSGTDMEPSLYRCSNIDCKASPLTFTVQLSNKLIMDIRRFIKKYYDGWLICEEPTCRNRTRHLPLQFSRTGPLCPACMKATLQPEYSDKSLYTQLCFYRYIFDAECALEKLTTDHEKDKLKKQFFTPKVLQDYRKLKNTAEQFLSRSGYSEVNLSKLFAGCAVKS
UniProt O15305: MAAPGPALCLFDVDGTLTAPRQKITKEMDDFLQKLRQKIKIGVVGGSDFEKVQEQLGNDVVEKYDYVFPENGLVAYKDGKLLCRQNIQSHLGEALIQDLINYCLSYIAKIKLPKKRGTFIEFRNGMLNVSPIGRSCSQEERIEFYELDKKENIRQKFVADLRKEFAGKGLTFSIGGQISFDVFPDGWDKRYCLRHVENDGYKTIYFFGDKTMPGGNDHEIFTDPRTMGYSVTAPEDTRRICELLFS
UniProt P23284: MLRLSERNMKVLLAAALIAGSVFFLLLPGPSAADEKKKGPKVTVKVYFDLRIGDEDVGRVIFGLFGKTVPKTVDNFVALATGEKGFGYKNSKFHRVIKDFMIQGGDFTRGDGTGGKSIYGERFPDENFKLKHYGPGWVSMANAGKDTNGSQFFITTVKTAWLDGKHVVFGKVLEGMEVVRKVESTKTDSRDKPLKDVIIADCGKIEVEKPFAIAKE
UniProt Q8NA72: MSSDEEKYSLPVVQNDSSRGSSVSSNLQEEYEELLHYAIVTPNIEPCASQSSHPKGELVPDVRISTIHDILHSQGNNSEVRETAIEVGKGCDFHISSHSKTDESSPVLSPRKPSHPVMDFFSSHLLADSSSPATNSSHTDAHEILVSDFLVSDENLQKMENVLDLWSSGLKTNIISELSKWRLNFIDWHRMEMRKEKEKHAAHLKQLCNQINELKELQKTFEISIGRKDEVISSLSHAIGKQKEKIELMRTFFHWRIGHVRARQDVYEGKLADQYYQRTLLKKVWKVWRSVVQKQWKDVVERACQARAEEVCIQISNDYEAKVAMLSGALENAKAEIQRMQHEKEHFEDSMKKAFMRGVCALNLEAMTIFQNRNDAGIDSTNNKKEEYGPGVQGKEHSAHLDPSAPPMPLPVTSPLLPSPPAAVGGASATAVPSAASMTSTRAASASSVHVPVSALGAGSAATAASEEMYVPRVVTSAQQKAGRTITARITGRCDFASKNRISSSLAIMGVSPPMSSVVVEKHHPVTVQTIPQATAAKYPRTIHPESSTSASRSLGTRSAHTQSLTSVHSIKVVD
UniProt O60664: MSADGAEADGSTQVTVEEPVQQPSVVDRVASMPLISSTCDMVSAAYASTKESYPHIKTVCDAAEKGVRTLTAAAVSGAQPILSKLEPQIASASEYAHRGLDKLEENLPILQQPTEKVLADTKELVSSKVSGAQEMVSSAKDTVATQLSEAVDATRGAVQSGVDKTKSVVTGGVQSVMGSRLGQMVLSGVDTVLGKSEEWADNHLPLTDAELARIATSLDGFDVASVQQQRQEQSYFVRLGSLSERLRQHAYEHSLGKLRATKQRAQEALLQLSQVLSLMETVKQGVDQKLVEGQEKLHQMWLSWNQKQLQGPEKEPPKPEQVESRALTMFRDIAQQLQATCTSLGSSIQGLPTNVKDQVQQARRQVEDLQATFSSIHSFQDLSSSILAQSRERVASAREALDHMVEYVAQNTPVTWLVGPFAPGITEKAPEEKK
UniProt O60568: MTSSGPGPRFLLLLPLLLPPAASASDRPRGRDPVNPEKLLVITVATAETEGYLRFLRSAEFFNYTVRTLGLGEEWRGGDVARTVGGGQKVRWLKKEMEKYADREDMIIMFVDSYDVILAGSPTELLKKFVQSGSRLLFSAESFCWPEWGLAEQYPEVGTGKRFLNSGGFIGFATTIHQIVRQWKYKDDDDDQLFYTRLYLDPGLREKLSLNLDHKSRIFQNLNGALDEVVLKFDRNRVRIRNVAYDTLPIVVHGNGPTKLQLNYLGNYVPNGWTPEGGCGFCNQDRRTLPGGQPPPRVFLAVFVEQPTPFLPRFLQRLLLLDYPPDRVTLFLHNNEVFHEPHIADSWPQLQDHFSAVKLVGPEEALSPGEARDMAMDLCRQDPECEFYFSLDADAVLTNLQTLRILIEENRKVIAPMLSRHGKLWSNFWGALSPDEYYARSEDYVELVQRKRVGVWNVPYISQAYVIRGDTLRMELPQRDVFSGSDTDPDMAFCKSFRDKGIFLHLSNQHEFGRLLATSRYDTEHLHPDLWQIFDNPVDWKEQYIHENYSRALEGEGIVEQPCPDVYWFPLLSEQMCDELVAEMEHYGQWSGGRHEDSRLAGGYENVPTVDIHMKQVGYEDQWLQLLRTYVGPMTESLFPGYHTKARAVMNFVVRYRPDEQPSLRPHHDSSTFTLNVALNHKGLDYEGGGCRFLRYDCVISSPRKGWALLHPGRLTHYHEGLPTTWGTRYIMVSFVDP
UniProt Q9UBT6: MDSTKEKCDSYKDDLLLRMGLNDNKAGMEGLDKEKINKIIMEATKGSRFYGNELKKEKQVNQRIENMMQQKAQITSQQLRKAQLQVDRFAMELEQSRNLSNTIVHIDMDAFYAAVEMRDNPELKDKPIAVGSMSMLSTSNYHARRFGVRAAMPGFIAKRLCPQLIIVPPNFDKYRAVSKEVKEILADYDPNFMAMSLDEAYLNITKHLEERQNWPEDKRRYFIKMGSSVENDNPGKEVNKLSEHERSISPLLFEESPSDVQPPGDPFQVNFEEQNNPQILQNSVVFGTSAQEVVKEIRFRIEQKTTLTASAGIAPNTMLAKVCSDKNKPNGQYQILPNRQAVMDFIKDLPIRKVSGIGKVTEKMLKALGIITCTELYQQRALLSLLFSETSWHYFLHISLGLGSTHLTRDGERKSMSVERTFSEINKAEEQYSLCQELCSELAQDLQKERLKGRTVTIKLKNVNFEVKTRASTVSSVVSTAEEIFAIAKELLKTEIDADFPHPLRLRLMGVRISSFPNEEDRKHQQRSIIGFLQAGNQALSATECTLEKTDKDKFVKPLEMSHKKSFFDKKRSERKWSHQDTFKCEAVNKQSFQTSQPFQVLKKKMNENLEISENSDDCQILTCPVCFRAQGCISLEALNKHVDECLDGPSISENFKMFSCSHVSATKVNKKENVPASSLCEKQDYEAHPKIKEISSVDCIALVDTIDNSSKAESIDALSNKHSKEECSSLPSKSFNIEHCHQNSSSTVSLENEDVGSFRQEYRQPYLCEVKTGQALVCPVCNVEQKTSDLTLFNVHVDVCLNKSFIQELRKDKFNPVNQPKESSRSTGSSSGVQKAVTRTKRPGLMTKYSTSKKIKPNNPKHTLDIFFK
UniProt Q8ND30: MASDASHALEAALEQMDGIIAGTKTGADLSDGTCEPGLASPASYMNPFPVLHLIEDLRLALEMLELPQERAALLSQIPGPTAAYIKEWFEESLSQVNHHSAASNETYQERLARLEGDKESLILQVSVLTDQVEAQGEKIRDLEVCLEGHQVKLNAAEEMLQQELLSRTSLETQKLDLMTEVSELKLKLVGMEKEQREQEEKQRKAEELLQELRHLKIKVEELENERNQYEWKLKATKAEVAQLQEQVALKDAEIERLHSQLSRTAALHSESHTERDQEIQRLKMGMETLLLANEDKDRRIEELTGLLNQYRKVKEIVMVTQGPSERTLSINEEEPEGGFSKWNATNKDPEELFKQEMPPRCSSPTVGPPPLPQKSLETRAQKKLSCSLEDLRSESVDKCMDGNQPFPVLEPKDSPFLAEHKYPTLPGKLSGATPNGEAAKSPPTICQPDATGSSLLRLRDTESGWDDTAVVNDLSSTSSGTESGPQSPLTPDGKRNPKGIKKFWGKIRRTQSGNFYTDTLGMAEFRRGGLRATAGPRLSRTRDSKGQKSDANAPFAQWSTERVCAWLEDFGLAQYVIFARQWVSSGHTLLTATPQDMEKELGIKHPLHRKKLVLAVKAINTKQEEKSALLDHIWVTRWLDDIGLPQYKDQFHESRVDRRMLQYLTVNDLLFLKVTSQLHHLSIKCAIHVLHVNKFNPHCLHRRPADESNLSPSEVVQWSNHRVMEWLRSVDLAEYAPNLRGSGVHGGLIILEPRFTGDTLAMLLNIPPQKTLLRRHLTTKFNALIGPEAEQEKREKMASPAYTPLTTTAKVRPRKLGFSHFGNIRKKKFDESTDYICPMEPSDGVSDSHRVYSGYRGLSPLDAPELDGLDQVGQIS
UniProt Q9NRY6: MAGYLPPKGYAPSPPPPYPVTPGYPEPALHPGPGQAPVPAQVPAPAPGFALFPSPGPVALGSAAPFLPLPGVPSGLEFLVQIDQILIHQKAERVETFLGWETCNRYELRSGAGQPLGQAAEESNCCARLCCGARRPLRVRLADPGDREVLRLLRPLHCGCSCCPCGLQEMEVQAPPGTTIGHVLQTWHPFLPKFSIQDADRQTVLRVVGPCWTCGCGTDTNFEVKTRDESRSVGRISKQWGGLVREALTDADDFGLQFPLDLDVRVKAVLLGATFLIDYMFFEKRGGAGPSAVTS

[1] = compound: C/C(=N\NC(=O)C1=CC(=CC=C1)S(=O)(=O)N2CCOCC2)/C3=C(C=CC(=C3)Cl)O
Procedure, shortened: as §1

[2] = compound: C1=CC(=CC=C1C2=NC3=C(N2)C=C(C=C3)C(=O)N)OC4=CC=C(C=C4)Cl
Procedure, shortened: as §1

[3] = compound: C1=CC2=C(C=CC(=C2)/C=C\3/C(=O)NC(=NCC4=CC=CS4)S3)N=C1
Procedure, shortened: as §1

[4] = compound: C1=CC2=NC=CN=C2C=C1/C=C/3\C(=O)NC(=O)S3
Procedure, shortened: as §1

[5] = compound: C1=CC=C(C=C1)C2=NC(=C(N2)C3=CC=NC=C3)C4=CC(=C(C=C4)Cl)O
Procedure, shortened: as §1

[6] = compound: C1=CC=C2C(=C1)C3=NNC4=CC=CC(=C43)C2=O
Procedure, shortened: as §1

[7] = compound: C1CCN(C1)C(=O)NC2=CC=CC(=C2)NC3=NC=C(C(=N3)NCCC4=CN=CN4)Br
Procedure, shortened: as §1

[8] = compound: C1CN(CCC1(CC2=CC=C(C=C2)Cl)N)C3=NC=NC4=C3C=CN4
Procedure, shortened: as §1

IRAK-1-4 Inhibitor I = compound: C1COCCN1CCN2C3=CC=CC=C3N=C2NC(=O)C4=CC(=CC=C4)[N+](=O)[O-] [IRAK-1-4 Inhibitor I]
Procedure, shortened: as §1

Measured: log2 fold change

POLR3G (UniProt O15318)
inactive: erlotinib -0.002 | [1] -0.058 | [2] -0.026 | [3] 0.037 | [4] -0.014 | [5] -0.03 | [6] -0.009 | [7] 0.02 | [8] 0 | IRAK-1-4 Inhibitor I 0.024

POLR2E (UniProt P19388)
inactive: erlotinib 0.02 | [1] 0.008 | [2] 0.011 | [3] -0.007 | [4] -0.021 | [5] 0.004 | [6] -0.084 | [7] -0.022 | [8] -0.015 | IRAK-1-4 Inhibitor I 0.011

PLK1 (UniProt P53350)
inactive: erlotinib 0.006 | [1] -0.032 | [2] -0.013 | [3] 0.077 | [4] -0.092 | [5] 0 | [6] -0.147 | [7] -0.069 | [8] 0.143 | IRAK-1-4 Inhibitor I -0.141

POLA1 (UniProt P09884)
inactive: erlotinib 0.009 | [1] -0.039 | [2] -0.02 | [3] -0.015 | [4] -0.036 | [5] 0.084 | [6] -0.005 | [7] -0.034 | [8] 0.015 | IRAK-1-4 Inhibitor I -0.003

PMM2 (UniProt O15305)
inactive: erlotinib -0.063 | [1] 0.043 | [2] -0.041 | [3] -0.015 | [4] 0.05 | [5] 0.016 | [6] 0.011 | [7] 0.017 | [8] -0.002 | IRAK-1-4 Inhibitor I -0.052

POLB (UniProt P06746)
inactive: erlotinib 0.012 | [1] 0.009 | [2] 0.075 | [3] 0.069 | [4] -0.022 | [5] 0.019 | [6] -0.061 | [7] -0.019 | [8] 0.026 | IRAK-1-4 Inhibitor I -0.062

POLDIP3 (UniProt Q9BY77)
inactive: erlotinib -0.047 | [1] -0.072 | [2] 0 | [3] 0.038 | [4] -0.15 | [5] 0.049 | [6] 0.053 | IRAK-1-4 Inhibitor I 0.034

PPIB (UniProt P23284)
inactive: erlotinib 0 | [1] 0.017 | [2] 0.008 | [3] -0.042 | [4] -0.018 | [5] -0.01 | [6] -0.003 | [7] -0.007 | [8] 0.001 | IRAK-1-4 Inhibitor I -0.001

POP4 (UniProt O95707)
inactive: erlotinib -0.024 | [1] -0.016 | [2] 0.033 | [3] -0.008 | [4] 0 | [5] 0.028 | [6] -0.004 | [7] 0.006 | [8] -0.032 | IRAK-1-4 Inhibitor I -0.017

POC5 (UniProt Q8NA72)
inactive: erlotinib -0.022 | [1] -0.083 | [2] -0.01 | [3] 0.069 | [4] -0.025 | [5] 0.039 | [6] -0.144 | [7] 0.045 | [8] 0.043 | IRAK-1-4 Inhibitor I 0.069

POLR2F (UniProt P61218)
inactive: erlotinib -0.05 | [1] -0.272 | [2] 0.069 | [3] -0.091 | [4] 0.033 | [5] 0.076 | [6] 0.01 | [7] 0.101 | [8] 0.019 | IRAK-1-4 Inhibitor I -0.052

PLIN3 (UniProt O60664)
inactive: erlotinib -0.021 | [1] -0.013 | [2] 0.017 | [3] 0.014 | [4] -0.017 | [5] 0.011 | [6] 0.047 | [7] 0.029 | [8] -0.01 | IRAK-1-4 Inhibitor I 0.014

POSTN (UniProt Q15063)
inactive: erlotinib -0.08 | [1] -0.053 | [2] 0.057 | [3] -0.026 | [4] -0.046 | [5] -0.195 | [6] 0.1 | [7] -0.079 | [8] 0.106 | IRAK-1-4 Inhibitor I 0.047

POLR2G (UniProt P62487)
inactive: erlotinib 0.02 | [1] 0.012 | [2] 0.044 | [3] -0.005 | [4] 0.029 | [5] 0.022 | [6] 0.036 | [7] -0.002 | [8] 0.02 | IRAK-1-4 Inhibitor I 0.03

PLOD3 (UniProt O60568)
inactive: erlotinib -0.008 | [1] 0.003 | [2] 0.003 | [3] -0.004 | [4] 0.013 | [5] -0.018 | [6] 0.024 | [7] 0.025 | [8] 0.013 | IRAK-1-4 Inhibitor I -0.014

PNP (UniProt P00491)
inactive: erlotinib -0.044 | [1] 0.023 | [2] 0.004 | [3] -0.011 | [4] -0.009 | [5] -0.008 | [6] -0.018 | [7] 0.009 | [8] -0.009 | IRAK-1-4 Inhibitor I -0.008

POLK (UniProt Q9UBT6)
inactive: [4] -0.068

POMGNT2 (UniProt Q8NAT1)
inactive: erlotinib 0.007 | [1] -0.109 | [2] 0.013 | [3] -0.102 | [5] -0.023 | [6] -0.136 | [7] -0.098 | [8] 0.046 | IRAK-1-4 Inhibitor I -0.013

POLG2 (UniProt J3KRM2)
inactive: erlotinib 0.083 | [2] 0.131 | [4] -0.174

PPFIBP2 (UniProt Q8ND30)
inactive: [7] -0.118 | [8] 0.328

Taken from the entries so far (six entries):
POSTN (UniProt Q15063)
inactive: erlotinib -0.08 | [1] -0.053 | [2] 0.057 | [3] -0.026 | [4] -0.046 | [5] -0.195 | [6] 0.1 | [7] -0.079 | [8] 0.106 | IRAK-1-4 Inhibitor I 0.047

POLR2G (UniProt P62487)
inactive: erlotinib 0.02 | [1] 0.012 | [2] 0.044 | [3] -0.005 | [4] 0.029 | [5] 0.022 | [6] 0.036 | [7] -0.002 | [8] 0.02 | IRAK-1-4 Inhibitor I 0.03

PLOD3 (UniProt O60568)
inactive: erlotinib -0.008 | [1] 0.003 | [2] 0.003 | [3] -0.004 | [4] 0.013 | [5] -0.018 | [6] 0.024 | [7] 0.025 | [8] 0.013 | IRAK-1-4 Inhibitor I -0.014

PNP (UniProt P00491)
inactive: erlotinib -0.044 | [1] 0.023 | [2] 0.004 | [3] -0.011 | [4] -0.009 | [5] -0.008 | [6] -0.018 | [7] 0.009 | [8] -0.009 | IRAK-1-4 Inhibitor I -0.008

POLK (UniProt Q9UBT6)
inactive: [4] -0.068

POMGNT2 (UniProt Q8NAT1)
inactive: erlotinib 0.007 | [1] -0.109 | [2] 0.013 | [3] -0.102 | [5] -0.023 | [6] -0.136 | [7] -0.098 | [8] 0.046 | IRAK-1-4 Inhibitor I -0.013

Continuation:

PLSCR3 (UniProt Q9NRY6)
inactive: [1] -0.048 | [3] -0.189 | [6] 0.149 | [7] -0.126 | [8] 0.25

PNMT (UniProt P11086)
inactive: erlotinib 0.035 | [1] -0.178 | [2] 0.009 | [3] -0.041 | [5] -0.098 | [6] -0.219 | IRAK-1-4 Inhibitor I 0.094

Source: the supplement of paper PMC10849652
